Like-named read-outs stand apart in the source and are kept apart here. These are yes or no findings as the source states them, for the method shown. In cells and extracts the contact can be indirect. Some entries that bind do so weakly or less than the wild type.
What was measured:
[1] = target: Hypoxia inducible factor 1α (in SK-N-MC cells) (human (endogenous in SK-N-MC)) (UniProt Q16665); assay: co-IP; SK-N-MC neuroblastoma cells, normoxia or hypoxia (Supplementary Fig. S6A); method taken from the paper's co-immunoprecipitation protocol, legend not shown
[2] = target: Hypoxia inducible factor 1α (human (endogenous in UCB-MSCs)) (UniProt Q16665); assay: co-IP; UCB-MSC lysates (20 mM Tris-HCl pH 8.0, 137 mM NaCl, 1% Nonidet P-40, 2 mM EDTA); primary antibody on Protein G magnetic beads, 6 h at 4 C; western blot; cells under normoxia or hypoxia 24 h, in some panels with MG132, wortmannin, ciliobrevin D, CoCl2 or NT siRNA
[3] = target: T1, Bicaudal D homolog 1 (human (endogenous in UCB-MSCs)) (UniProt Q96G01); assay: as above
T1 sequence: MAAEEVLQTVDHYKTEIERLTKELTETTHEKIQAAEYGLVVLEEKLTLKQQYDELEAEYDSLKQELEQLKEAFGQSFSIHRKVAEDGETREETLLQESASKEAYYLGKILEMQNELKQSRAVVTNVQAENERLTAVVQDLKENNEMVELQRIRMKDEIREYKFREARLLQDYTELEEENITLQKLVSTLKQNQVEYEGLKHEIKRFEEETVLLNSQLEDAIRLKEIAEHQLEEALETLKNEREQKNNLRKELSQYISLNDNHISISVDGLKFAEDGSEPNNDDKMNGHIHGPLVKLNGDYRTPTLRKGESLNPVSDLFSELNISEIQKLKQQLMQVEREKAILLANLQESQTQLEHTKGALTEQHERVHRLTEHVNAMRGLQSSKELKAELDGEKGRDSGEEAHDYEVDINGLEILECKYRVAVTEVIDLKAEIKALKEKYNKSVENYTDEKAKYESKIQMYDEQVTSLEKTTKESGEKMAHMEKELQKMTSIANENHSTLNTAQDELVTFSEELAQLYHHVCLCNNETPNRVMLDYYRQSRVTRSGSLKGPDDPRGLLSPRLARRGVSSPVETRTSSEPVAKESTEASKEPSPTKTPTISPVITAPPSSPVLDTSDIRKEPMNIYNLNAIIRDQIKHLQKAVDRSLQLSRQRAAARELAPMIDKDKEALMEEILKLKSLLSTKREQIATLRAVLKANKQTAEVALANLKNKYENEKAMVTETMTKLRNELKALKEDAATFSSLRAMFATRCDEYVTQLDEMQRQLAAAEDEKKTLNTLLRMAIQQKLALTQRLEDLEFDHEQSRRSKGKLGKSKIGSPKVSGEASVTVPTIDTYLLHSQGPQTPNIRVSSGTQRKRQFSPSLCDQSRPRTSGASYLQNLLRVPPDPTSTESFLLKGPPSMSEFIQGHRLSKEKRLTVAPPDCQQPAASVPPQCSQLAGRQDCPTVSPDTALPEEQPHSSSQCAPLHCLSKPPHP

Sequences of proteins named here, by UniProt entry; tags and fusion partners are left off.
UniProt Q16665: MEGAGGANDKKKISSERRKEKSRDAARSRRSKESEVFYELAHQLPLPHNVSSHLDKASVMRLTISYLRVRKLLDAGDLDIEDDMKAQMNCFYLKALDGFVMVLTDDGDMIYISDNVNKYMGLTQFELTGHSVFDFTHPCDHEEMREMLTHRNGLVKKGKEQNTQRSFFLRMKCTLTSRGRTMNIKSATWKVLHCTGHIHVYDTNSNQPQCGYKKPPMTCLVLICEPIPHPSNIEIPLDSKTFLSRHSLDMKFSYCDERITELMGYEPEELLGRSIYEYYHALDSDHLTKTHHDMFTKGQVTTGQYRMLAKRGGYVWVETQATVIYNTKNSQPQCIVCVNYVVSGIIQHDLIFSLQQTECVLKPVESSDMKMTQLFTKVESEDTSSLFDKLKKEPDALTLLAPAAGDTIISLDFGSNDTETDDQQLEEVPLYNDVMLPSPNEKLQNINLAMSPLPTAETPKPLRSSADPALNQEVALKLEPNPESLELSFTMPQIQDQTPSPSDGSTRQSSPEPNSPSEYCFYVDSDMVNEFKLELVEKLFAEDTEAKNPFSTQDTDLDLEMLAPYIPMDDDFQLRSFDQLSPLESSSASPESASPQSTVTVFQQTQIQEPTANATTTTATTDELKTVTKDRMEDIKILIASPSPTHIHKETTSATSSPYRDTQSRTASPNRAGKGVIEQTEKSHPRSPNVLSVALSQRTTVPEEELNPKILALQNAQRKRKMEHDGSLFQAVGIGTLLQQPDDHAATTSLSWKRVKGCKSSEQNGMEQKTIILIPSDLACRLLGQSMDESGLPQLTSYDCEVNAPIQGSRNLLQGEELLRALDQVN
UniProt Q8TD16: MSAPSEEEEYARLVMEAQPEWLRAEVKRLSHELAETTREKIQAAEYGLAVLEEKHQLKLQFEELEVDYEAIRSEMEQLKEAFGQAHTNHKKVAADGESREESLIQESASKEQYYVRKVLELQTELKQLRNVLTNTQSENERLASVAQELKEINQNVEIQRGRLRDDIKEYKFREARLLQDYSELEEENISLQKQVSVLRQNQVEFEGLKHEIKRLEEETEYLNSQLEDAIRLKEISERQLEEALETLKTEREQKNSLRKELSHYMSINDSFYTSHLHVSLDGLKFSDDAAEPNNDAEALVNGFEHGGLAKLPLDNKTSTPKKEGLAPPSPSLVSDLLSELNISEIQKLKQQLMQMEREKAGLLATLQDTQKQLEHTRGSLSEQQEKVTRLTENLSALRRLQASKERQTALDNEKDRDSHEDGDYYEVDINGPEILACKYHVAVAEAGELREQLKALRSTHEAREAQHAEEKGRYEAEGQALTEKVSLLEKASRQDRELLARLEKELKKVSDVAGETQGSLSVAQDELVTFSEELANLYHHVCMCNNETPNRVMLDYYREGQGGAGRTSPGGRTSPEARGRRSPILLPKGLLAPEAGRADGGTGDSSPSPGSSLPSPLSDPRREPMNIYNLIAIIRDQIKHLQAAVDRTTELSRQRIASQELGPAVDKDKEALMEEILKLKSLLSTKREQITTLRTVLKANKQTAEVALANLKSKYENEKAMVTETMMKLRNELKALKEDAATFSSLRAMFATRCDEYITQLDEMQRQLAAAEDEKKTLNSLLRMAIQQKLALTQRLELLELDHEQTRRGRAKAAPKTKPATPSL
UniProt P49841: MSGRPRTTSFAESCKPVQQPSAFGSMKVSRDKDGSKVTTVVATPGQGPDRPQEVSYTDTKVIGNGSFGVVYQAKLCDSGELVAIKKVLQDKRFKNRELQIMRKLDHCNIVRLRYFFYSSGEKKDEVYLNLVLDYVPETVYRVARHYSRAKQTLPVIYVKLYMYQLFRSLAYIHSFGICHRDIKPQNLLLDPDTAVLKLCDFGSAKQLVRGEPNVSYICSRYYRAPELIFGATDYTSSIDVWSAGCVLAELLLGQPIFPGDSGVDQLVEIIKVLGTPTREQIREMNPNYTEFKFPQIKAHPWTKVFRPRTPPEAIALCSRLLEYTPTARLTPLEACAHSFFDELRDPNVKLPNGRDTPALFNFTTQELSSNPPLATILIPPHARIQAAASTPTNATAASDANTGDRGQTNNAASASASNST
UniProt O00629: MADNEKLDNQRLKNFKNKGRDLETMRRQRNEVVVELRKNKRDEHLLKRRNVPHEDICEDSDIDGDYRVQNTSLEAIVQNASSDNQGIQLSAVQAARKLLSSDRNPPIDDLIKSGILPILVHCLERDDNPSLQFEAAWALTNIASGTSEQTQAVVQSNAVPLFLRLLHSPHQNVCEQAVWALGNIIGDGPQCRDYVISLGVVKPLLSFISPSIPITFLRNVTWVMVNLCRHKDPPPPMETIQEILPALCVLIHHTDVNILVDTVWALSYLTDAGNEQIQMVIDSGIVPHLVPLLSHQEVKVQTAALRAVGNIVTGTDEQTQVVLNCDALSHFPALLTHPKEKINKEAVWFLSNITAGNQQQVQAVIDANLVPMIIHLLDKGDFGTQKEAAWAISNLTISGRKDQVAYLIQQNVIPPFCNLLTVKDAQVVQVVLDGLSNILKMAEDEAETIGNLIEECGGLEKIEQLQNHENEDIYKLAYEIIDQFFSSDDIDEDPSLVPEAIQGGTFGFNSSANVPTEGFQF
UniProt P49792: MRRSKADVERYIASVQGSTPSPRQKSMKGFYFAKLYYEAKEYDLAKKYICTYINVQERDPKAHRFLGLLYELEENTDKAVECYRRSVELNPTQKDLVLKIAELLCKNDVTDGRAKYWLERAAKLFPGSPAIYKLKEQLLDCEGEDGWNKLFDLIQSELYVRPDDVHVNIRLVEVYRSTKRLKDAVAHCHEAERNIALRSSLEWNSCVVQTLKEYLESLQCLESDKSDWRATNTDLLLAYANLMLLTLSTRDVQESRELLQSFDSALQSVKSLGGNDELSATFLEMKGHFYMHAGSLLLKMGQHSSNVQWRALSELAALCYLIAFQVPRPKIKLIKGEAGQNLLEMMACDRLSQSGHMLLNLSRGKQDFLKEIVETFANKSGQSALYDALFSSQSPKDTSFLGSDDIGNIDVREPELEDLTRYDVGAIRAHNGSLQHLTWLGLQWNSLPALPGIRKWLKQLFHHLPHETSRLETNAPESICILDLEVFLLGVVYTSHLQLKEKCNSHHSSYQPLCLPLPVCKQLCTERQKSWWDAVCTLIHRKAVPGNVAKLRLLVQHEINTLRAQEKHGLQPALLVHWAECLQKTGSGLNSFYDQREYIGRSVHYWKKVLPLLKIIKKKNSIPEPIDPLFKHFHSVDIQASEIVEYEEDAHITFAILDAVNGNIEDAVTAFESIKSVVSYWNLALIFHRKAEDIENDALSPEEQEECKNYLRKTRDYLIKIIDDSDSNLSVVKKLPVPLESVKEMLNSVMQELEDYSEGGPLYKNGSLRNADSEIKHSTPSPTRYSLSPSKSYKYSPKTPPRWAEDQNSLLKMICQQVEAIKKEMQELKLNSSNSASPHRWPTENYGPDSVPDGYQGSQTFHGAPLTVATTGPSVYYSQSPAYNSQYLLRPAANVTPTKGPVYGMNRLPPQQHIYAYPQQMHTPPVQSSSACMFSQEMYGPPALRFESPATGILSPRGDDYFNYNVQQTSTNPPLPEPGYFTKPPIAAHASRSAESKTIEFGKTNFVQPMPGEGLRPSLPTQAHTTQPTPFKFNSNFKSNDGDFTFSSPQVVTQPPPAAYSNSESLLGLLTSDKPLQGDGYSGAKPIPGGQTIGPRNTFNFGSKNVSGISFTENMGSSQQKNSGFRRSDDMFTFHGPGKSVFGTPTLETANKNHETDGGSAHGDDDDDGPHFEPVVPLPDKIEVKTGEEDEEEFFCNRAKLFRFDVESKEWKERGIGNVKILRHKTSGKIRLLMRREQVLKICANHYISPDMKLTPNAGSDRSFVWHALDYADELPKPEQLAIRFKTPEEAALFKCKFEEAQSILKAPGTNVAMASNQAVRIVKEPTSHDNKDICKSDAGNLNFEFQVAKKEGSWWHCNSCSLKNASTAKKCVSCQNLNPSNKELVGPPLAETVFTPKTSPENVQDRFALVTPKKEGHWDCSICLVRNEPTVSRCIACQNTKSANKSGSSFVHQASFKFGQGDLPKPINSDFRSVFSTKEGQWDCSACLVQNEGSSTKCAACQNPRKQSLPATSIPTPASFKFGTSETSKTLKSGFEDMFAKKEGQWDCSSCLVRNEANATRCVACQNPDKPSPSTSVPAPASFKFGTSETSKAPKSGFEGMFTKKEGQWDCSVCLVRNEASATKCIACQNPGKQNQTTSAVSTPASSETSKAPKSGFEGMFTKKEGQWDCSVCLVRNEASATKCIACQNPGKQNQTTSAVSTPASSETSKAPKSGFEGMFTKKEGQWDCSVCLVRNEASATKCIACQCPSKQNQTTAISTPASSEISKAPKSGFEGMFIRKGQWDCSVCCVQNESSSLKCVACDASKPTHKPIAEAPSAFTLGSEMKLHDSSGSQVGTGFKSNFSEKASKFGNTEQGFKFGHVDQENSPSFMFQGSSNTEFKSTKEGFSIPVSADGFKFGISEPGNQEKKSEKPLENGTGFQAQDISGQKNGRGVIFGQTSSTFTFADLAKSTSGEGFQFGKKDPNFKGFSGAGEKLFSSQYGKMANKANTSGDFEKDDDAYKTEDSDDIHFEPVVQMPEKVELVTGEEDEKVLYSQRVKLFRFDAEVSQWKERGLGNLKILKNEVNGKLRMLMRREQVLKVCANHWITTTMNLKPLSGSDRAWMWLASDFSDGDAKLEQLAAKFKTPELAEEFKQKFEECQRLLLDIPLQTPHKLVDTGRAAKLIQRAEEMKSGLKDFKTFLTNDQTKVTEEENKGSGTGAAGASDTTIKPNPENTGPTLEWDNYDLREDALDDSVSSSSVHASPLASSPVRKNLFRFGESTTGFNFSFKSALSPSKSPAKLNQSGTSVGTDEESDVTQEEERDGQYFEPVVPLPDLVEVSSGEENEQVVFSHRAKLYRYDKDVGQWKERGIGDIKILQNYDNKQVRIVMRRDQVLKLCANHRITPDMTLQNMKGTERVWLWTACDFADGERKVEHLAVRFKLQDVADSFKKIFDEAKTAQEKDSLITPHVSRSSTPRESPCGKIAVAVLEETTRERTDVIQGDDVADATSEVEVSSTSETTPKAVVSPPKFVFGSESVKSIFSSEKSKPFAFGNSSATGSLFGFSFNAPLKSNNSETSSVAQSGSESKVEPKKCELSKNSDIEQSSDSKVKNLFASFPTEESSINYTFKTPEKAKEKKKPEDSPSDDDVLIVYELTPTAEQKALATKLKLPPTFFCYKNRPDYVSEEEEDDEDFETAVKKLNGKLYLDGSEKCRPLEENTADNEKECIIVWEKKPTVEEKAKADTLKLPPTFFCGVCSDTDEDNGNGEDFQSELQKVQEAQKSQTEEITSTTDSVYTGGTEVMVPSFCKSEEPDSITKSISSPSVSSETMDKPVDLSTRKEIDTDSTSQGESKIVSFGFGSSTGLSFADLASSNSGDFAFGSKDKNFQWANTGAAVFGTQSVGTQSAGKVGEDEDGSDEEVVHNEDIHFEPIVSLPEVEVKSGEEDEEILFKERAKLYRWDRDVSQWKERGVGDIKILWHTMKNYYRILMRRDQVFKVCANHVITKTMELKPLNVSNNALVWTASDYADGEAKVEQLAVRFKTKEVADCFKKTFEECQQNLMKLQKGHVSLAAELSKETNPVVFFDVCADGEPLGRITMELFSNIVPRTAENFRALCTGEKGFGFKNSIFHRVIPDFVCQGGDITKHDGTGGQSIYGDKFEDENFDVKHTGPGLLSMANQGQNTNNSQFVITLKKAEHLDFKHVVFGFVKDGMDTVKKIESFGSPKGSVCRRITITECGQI

[4] = target: T1, Bicaudal D homolog 1 (human (endogenous in UCB-MSCs)); assay: proximity ligation; in situ Duolink PLA on fixed UCB-MSCs, normoxia or hypoxia, antibodies in proximity < 40 nm, SRRF microscopy
[5] = target: Hypoxia inducible factor 1α (human (endogenous in UCB-MSCs)) (UniProt Q16665); assay: co-IP; UCB-MSC lysates (20 mM Tris-HCl pH 8.0, 137 mM NaCl, 1% Nonidet P-40, 2 mM EDTA); primary antibody on Protein G magnetic beads, 6 h at 4 C; western blot; cells under normoxia or hypoxia 24 h, in some panels with MG132, wortmannin, ciliobrevin D, CoCl2 or NT siRNA; remark: listed apart in the source

Q: For “BICD2 (in SK-N-MC cells) (from UniProt Q8TD16 1-824)”, which binding [1] is on record?
A: binds

Q: Which binding [2] does the source give for BICD2 (from UniProt Q8TD16 1-824) here?
A: binds

Q: Which results are given for “Hypoxia inducible factor 1α (from UniProt Q16665 1-826)”?
A: binding [3]: binds; binding [4]: binds

Q: GSK3β (from UniProt P49841 1-420) was tested. Which binding [3] did it give?
A: binds

Q: Which binding [3] does the source give for Importin α3 (from UniProt O00629 1-521) here?
A: binds

Q: With RanBP2 (from UniProt P49792 1-3224) as the molecule, how does the binding [3] read?
A: binds

B1: Bicaudal D homolog 1 (protein, UniProt Q96G01 1-975)
chain: MAAEEVLQTVDHYKTEIERLTKELTETTHEKIQAAEYGLVVLEEKLTLKQQYDELEAEYDSLKQELEQLKEAFGQSFSIHRKVAEDGETREETLLQESASKEAYYLGKILEMQNELKQSRAVVTNVQAENERLTAVVQDLKENNEMVELQRIRMKDEIREYKFREARLLQDYTELEEENITLQKLVSTLKQNQVEYEGLKHEIKRFEEETVLLNSQLEDAIRLKEIAEHQLEEALETLKNEREQKNNLRKELSQYISLNDNHISISVDGLKFAEDGSEPNNDDKMNGHIHGPLVKLNGDYRTPTLRKGESLNPVSDLFSELNISEIQKLKQQLMQVEREKAILLANLQESQTQLEHTKGALTEQHERVHRLTEHVNAMRGLQSSKELKAELDGEKGRDSGEEAHDYEVDINGLEILECKYRVAVTEVIDLKAEIKALKEKYNKSVENYTDEKAKYESKIQMYDEQVTSLEKTTKESGEKMAHMEKELQKMTSIANENHSTLNTAQDELVTFSEELAQLYHHVCLCNNETPNRVMLDYYRQSRVTRSGSLKGPDDPRGLLSPRLARRGVSSPVETRTSSEPVAKESTEASKEPSPTKTPTISPVITAPPSSPVLDTSDIRKEPMNIYNLNAIIRDQIKHLQKAVDRSLQLSRQRAAARELAPMIDKDKEALMEEILKLKSLLSTKREQIATLRAVLKANKQTAEVALANLKNKYENEKAMVTETMTKLRNELKALKEDAATFSSLRAMFATRCDEYVTQLDEMQRQLAAAEDEKKTLNTLLRMAIQQKLALTQRLEDLEFDHEQSRRSKGKLGKSKIGSPKVSGEASVTVPTIDTYLLHSQGPQTPNIRVSSGTQRKRQFSPSLCDQSRPRTSGASYLQNLLRVPPDPTSTESFLLKGPPSMSEFIQGHRLSKEKRLTVAPPDCQQPAASVPPQCSQLAGRQDCPTVSPDTALPEEQPHSSSQCAPLHCLSKPPHP
Q: Which binding [5] does the source give for B1 here?
A: binds

B2: BICD1 (in SK-N-MC cells) (protein, UniProt Q96G01 1-975)
chain: MAAEEVLQTVDHYKTEIERLTKELTETTHEKIQAAEYGLVVLEEKLTLKQQYDELEAEYDSLKQELEQLKEAFGQSFSIHRKVAEDGETREETLLQESASKEAYYLGKILEMQNELKQSRAVVTNVQAENERLTAVVQDLKENNEMVELQRIRMKDEIREYKFREARLLQDYTELEEENITLQKLVSTLKQNQVEYEGLKHEIKRFEEETVLLNSQLEDAIRLKEIAEHQLEEALETLKNEREQKNNLRKELSQYISLNDNHISISVDGLKFAEDGSEPNNDDKMNGHIHGPLVKLNGDYRTPTLRKGESLNPVSDLFSELNISEIQKLKQQLMQVEREKAILLANLQESQTQLEHTKGALTEQHERVHRLTEHVNAMRGLQSSKELKAELDGEKGRDSGEEAHDYEVDINGLEILECKYRVAVTEVIDLKAEIKALKEKYNKSVENYTDEKAKYESKIQMYDEQVTSLEKTTKESGEKMAHMEKELQKMTSIANENHSTLNTAQDELVTFSEELAQLYHHVCLCNNETPNRVMLDYYRQSRVTRSGSLKGPDDPRGLLSPRLARRGVSSPVETRTSSEPVAKESTEASKEPSPTKTPTISPVITAPPSSPVLDTSDIRKEPMNIYNLNAIIRDQIKHLQKAVDRSLQLSRQRAAARELAPMIDKDKEALMEEILKLKSLLSTKREQIATLRAVLKANKQTAEVALANLKNKYENEKAMVTETMTKLRNELKALKEDAATFSSLRAMFATRCDEYVTQLDEMQRQLAAAEDEKKTLNTLLRMAIQQKLALTQRLEDLEFDHEQSRRSKGKLGKSKIGSPKVSGEASVTVPTIDTYLLHSQGPQTPNIRVSSGTQRKRQFSPSLCDQSRPRTSGASYLQNLLRVPPDPTSTESFLLKGPPSMSEFIQGHRLSKEKRLTVAPPDCQQPAASVPPQCSQLAGRQDCPTVSPDTALPEEQPHSSSQCAPLHCLSKPPHP
Q: With B2 as the molecule, how does the binding [1] read?
A: binds

Reference: publication PMC6748134
